The source gives many values for each of these; only a part stands here.
Test system: Chemotherapeutic agent-caused diarrhea models of Balb/c mice
Assay: Relieving effect on diarrhea caused by a chemotherapeutic agent (Examples 1-201)
Format: in vivo
Text: Construction of mouse animal models: Chemotherapeutic agent-caused diarrhea models of Balb/c mice were constructed according to the administration mode and frequency of the chemotherapeutic agent as shown in Table 3. After administration for several days, mice developed different extents of diarrhea symptoms (as shown in FIG. 1), which were similar to the conditions in human. Thus, chemotherapeutic agent-caused diarrhea models of mice are very good models to mimic diarrhea in human caused by the chemotherapeutic agent.
Balb/c mice were fed for 1 week, and then divided into groups. The experiment was divided into a control group, a chemotherapeutic agent group, and a group of the compound as shown in Formula I, each of which comprised 10 mice, to perform the administration experiment, for which the administration dosage, mode, time and frequency were shown in Table 3. The control group: being injected or intragastrically administered with the same solvent as that used in the group of the compound as shown in Formula I (the injection mode and time were shown in Table 3), and then being injected or intragastrically administered with the same solvent as that used in the chemotherapeutic agent group (the administration mode was shown in Table 3); the chemotherapeutic agent group: being injected or intragastrically administered with the same solvent as that used in the group of the compound as shown in Formula I (the administration mode and time were shown in Table 3), and then being injected or intragastrically administered with the chemotherapeutic agent (the type, administration mode and dosage were shown in Table 3); the group of the compound as shown in Formula I: being injected or intragastrically administered with the compound as shown in Formula I (the administration mode and time were shown in Table 3), and then being administered with the chemotherapeutic agent (the administration mode and dosage were shown in Table 3).
The scoring of diarrhea can refer to the method of Akinobu Kurita (Cancer Chemother Pharmacol 2000; 46:211-20.), Grade 0: normal feces; Grade 1: mild diarrhea, the stools is slightly wet and soft; Grade 2: moderate diarrhea, loose stools and mild perianal contamination; Grade 3: severe diarrhea, watery stools and accompanied by severe perianal staining (see FIG. 1). It is regarded as effective remission when the diarrhea grading of mice in the group of the compound as shown in Formula I is reduced compared with the average diarrhea grading of mice in the chemotherapeutic agent group.
The diarrhea grading of mice was observed and recorded every day. At the end of the experiment, the number of mice in the group of the compound as shown in Formula I whose diarrhea grading was lower than that of mice in the chemotherapeutic agent group was recorded. Table 3 lists various animal experiment combinations of chemotherapeutic agents and the compound as shown in Formula I, as well as the corresponding experimental results. (Relative remission rate %=the number of mice in the group of the compound as shown in Formula I whose diarrhea has been effectively relieved/the total number of mice in the group of the compound as shown in Formula I*100%. The establishment rate of diarrhea model in the chemotherapeutic agent group was 50%-70%, that is, about 5-7 of 10 mice developed diarrhea during the experiment, and there were cases of individual mice death or not developing diarrhea.)

Compound: CN1CCN(c2ccc(Nc3ncc4cc5n(c4n3)C3(CCCCC3)CNC5=O)nc2)CC1 [Compound I, Trilaciclib]
- Relative remission rate (Ex 19, 5-Fu 125 mg/kg intraperitoneal single, compound 100 mg/kg intravenous single 13 h before, cycle 10 days): 60%
- Relative remission rate (Ex 20, 5-Fu 125 mg/kg intraperitoneal single, compound 100 mg/kg intravenous single 14 h before, cycle 10 days): 60%
- Relative remission rate (Ex 21, 5-Fu 125 mg/kg intraperitoneal single, compound 100 mg/kg intravenous single 16 h before, cycle 10 days): 60%
- Relative remission rate (Ex 22, 5-Fu 125 mg/kg intraperitoneal single, compound 100 mg/kg intravenous single 18 h before, cycle 10 days): 50%
- Relative remission rate (Ex 23, 5-Fu 125 mg/kg intraperitoneal single, compound 100 mg/kg intravenous single 20 h before, cycle 10 days): 50%
- Relative remission rate (Ex 24, 5-Fu 125 mg/kg intraperitoneal single, compound 100 mg/kg intravenous single 22 h before, cycle 10 days): 40%
- Relative remission rate (Ex 25, 5-Fu 125 mg/kg intraperitoneal single, compound 100 mg/kg intravenous single 24 h before, cycle 10 days): 40%
- Relative remission rate (Ex 26, 5-Fu 125 mg/kg intraperitoneal single, compound 100 mg/kg intravenous single 48 h before, cycle 10 days): 0%
- Relative remission rate (Ex 34, 5-Fu 175 mg/kg intravenous single, compound 100 mg/kg intraperitoneal single 0.5 h before, cycle 10 days): 40%
- Relative remission rate (Ex 35, 5-Fu 175 mg/kg intravenous single, compound 100 mg/kg intraperitoneal single 1 h before, cycle 10 days): 40%
- Relative remission rate (Ex 36, 5-Fu 175 mg/kg intravenous single, compound 100 mg/kg intraperitoneal single 2 h before, cycle 10 days): 30%
- Relative remission rate (Ex 37, 5-Fu 175 mg/kg intravenous single, compound 100 mg/kg intraperitoneal single 4 h before, cycle 10 days): 30%
- Relative remission rate (Ex 38, 5-Fu 175 mg/kg intravenous single, compound 100 mg/kg intraperitoneal single 6 h before, cycle 10 days): 50%
- Relative remission rate (Ex 39, 5-Fu 175 mg/kg intravenous single, compound 100 mg/kg intraperitoneal single 8 h before, cycle 10 days): 60%
- Relative remission rate (Ex 40, 5-Fu 175 mg/kg intravenous single, compound 100 mg/kg intraperitoneal single 10 h before, cycle 10 days): 50%
- Relative remission rate (Ex 41, 5-Fu 175 mg/kg intravenous single, compound 100 mg/kg intraperitoneal single 12 h before, cycle 10 days): 40%
- Relative remission rate (Ex 42, 5-Fu 175 mg/kg intravenous single, compound 100 mg/kg intraperitoneal single 14 h before, cycle 10 days): 30%
- Relative remission rate (Ex 43, 5-Fu 175 mg/kg intravenous single, compound 100 mg/kg intraperitoneal single 16 h before, cycle 10 days): 40%
- Relative remission rate (Ex 44, 5-Fu 175 mg/kg intravenous single, compound 100 mg/kg intraperitoneal single 18 h before, cycle 10 days): 50%
- Relative remission rate (Ex 45, 5-Fu 175 mg/kg intravenous single, compound 100 mg/kg intraperitoneal single 20 h before, cycle 10 days): 50%
- Relative remission rate (Ex 46, 5-Fu 175 mg/kg intravenous single, compound 100 mg/kg intraperitoneal single 24 h before, cycle 10 days): 40%
- Relative remission rate (Ex 47, 5-Fu 175 mg/kg intravenous single, compound 100 mg/kg intraperitoneal single 48 h before, cycle 10 days): 0%
- Relative remission rate (Ex 52, 5-Fu 175 mg/kg intravenous single, compound 100 mg/kg oral single 0.5 h before, cycle 10 days): 40%
- Relative remission rate (Ex 53, 5-Fu 175 mg/kg intravenous single, compound 100 mg/kg oral single 4 h before, cycle 10 days): 80%
- Relative remission rate (Ex 54, 5-Fu 175 mg/kg intravenous single, compound 100 mg/kg oral single 12 h before, cycle 10 days): 50%
- Relative remission rate (Ex 55, 5-Fu 175 mg/kg intravenous single, compound 100 mg/kg oral single 24 h before, cycle 10 days): 30%
- Relative remission rate (Ex 56, 5-Fu 250 mg/kg oral single, compound 150 mg/kg intramuscular single 0.5 h before, cycle 8 days): 60%
- Relative remission rate (Ex 57, 5-Fu 125 mg/kg intramuscular single, compound 100 mg/kg intraperitoneal single 8 h before, cycle 10 days): 40%
- Relative remission rate (Ex 58, Oxaliplatin 20 mg/kg intraperitoneal single, compound 100 mg/kg intraperitoneal single 0.5 h before, cycle 8 days): 40%
- Relative remission rate (Ex 59, Oxaliplatin 20 mg/kg intraperitoneal single, compound 100 mg/kg intraperitoneal single 1 h before, cycle 8 days): 30%
- Relative remission rate (Ex 60, Oxaliplatin 20 mg/kg intraperitoneal single, compound 100 mg/kg intraperitoneal single 2 h before, cycle 8 days): 40%
- Relative remission rate (Ex 61, Oxaliplatin 20 mg/kg intraperitoneal single, compound 100 mg/kg intraperitoneal single 3 h before, cycle 8 days): 50%
- Relative remission rate (Ex 62, Oxaliplatin 20 mg/kg intraperitoneal single, compound 100 mg/kg intraperitoneal single 4 h before, cycle 8 days): 50%
- Relative remission rate (Ex 63, Oxaliplatin 20 mg/kg intraperitoneal single, compound 100 mg/kg intraperitoneal single 5 h before, cycle 8 days): 30%
- Relative remission rate (Ex 64, Oxaliplatin 20 mg/kg intraperitoneal single, compound 100 mg/kg intraperitoneal single 6 h before, cycle 8 days): 40%
- Relative remission rate (Ex 65, Oxaliplatin 20 mg/kg intraperitoneal single, compound 100 mg/kg intraperitoneal single 7 h before, cycle 8 days): 60%
- Relative remission rate (Ex 66, Oxaliplatin 20 mg/kg intraperitoneal single, compound 100 mg/kg intraperitoneal single 8 h before, cycle 8 days): 60%
- Relative remission rate (Ex 67, Oxaliplatin 20 mg/kg intraperitoneal single, compound 100 mg/kg intraperitoneal single 9 h before, cycle 8 days): 50%
- Relative remission rate (Ex 68, Oxaliplatin 20 mg/kg intraperitoneal single, compound 100 mg/kg intraperitoneal single 10 h before, cycle 8 days): 70%
- Relative remission rate (Ex 69, Oxaliplatin 20 mg/kg intraperitoneal single, compound 100 mg/kg intraperitoneal single 11 h before, cycle 8 days): 70%
- Relative remission rate (Ex 70, Oxaliplatin 20 mg/kg intraperitoneal single, compound 100 mg/kg intraperitoneal single 12 h before, cycle 8 days): 50%
- Relative remission rate (Ex 71, Oxaliplatin 20 mg/kg intraperitoneal single, compound 100 mg/kg intraperitoneal single 14 h before, cycle 8 days): 60%
- Relative remission rate (Ex 72, Oxaliplatin 20 mg/kg intraperitoneal single, compound 100 mg/kg intraperitoneal single 16 h before, cycle 8 days): 50%
- Relative remission rate (Ex 73, Oxaliplatin 20 mg/kg intraperitoneal single, compound 100 mg/kg intraperitoneal single 18 h before, cycle 8 days): 50%
- Relative remission rate (Ex 74, Oxaliplatin 20 mg/kg intraperitoneal single, compound 100 mg/kg intraperitoneal single 20 h before, cycle 8 days): 70%
- Relative remission rate (Ex 75, Oxaliplatin 20 mg/kg intraperitoneal single, compound 100 mg/kg intraperitoneal single 22 h before, cycle 8 days): 40%
- Relative remission rate (Ex 76, Oxaliplatin 20 mg/kg intraperitoneal single, compound 100 mg/kg intraperitoneal single 24 h before, cycle 8 days): 40%
- Relative remission rate (Ex 77, Oxaliplatin 20 mg/kg intraperitoneal single, compound 100 mg/kg intraperitoneal single 48 h before, cycle 8 days): 0%
- Relative remission rate (Ex 81, Oxaliplatin 17.5 mg/kg intravenous single, compound 150 mg/kg intravenous single 0.5 h before, cycle 8 days): 20%
- Relative remission rate (Ex 82, Oxaliplatin 17.5 mg/kg intravenous single, compound 150 mg/kg intravenous single 4 h before, cycle 8 days): 30%
- Relative remission rate (Ex 83, Oxaliplatin 17.5 mg/kg intravenous single, compound 150 mg/kg intravenous single 8 h before, cycle 8 days): 30%
- Relative remission rate (Ex 84, Oxaliplatin 17.5 mg/kg intravenous single, compound 150 mg/kg intravenous single 12 h before, cycle 8 days): 40%
- Relative remission rate (Ex 85, Oxaliplatin 17.5 mg/kg intravenous single, compound 150 mg/kg intravenous single 16 h before, cycle 8 days): 40%
